In the supplement of paper PMC11542785:
Counter-ions that a name gives are not always drawn. The list shows a part of the results. Single values are uncertain, as repeats are few or missing.

system: Drosophila melanogaster DPAGT1 (Alg7) RNAi eye model; experiment: eye size Z-score vs DMSO-treated DPAGT1 model flies; higher = larger eye (suppression of DPAGT1 phenotype); details: 5 uM

| Structure (SMILES) | eye size Z-score |
| --- | --- |
| CCn1cc(C(=O)O)c(=O)c2cc(F)c(N3CCNCC3)nc21 [Enoxacin] | -0.05 |
| CCCc1ncc(C[n+]2ccccc2C)c(N)n1 [Amprolium hydrochloride] | 0.93 |
| CC(C(=O)O)c1cccc(Oc2ccccc2)c1 (stereo not drawn) [Fenoprofen calcium salt dihydrate] | 0.48 |
| Oc1ccc(C2CNCCc3c2cc(O)c(O)c3Cl)cc1 (stereo not drawn) [Fenoldopam] | 0.73 |
| CC(C)=CCOc1ccc(/C=C/C(=O)c2ccc(OCC=C(C)C)cc2OCC(=O)O)cc1 [Sofalcone] | 0.71 |
| O=C1OC(c2ccc(O)cc2)(c2ccc(O)cc2)c2ccccc21 [Phenolphthalein] | 0.87 |
| CS(=O)(=O)c1ccc([C@@H](O)[C@@H](CF)NC(=O)C(Cl)Cl)cc1 [Florfenicol] | 0.99 |
| CCN(CC)CCCC(C)Nc1ccnc2cc(Cl)ccc12 (stereo not drawn) [Chloroquine diphosphate] | 0.94 |
| Nc1ccc(S(=O)(=O)NC(=O)c2ccccc2)cc1 [Sulfabenzamide] | -0.71 |
| CC(C)c1nc(N(C)S(C)(=O)=O)nc(-c2ccc(F)cc2)c1/C=C/[C@@H](O)C[C@@H](O)CC(=O)O [Rosuvastatin] | 1.51 |
| C=C(CC)C(=O)c1ccc(OCC(=O)O)c(Cl)c1Cl [Ethacrynic acid] | 0.1 |
| C1N2CN3CN1CN(C2)C3 [Methenamine] | -0.9 |
| O=C1NCCN1c1ncc([N+](=O)[O-])s1 [Niridazole] | -1.36 |
| CCCCCN(C)CCC(O)(P(=O)(O)O)P(=O)(O)O [Ibandronate sodium] | -1.17 |
| CC(C)(C)C(=O)OCOC(=O)[C@@H]1N2C(=O)[C@@H](/N=C/N3CCCCCC3)[C@H]2SC1(C)C [Pivmecillinam hydrochloride] | -0.19 |
| CC(C)OC(=O)C(C(=O)OC(C)C)=C1SC=CS1 [Malotilate] | 0.14 |
| Cc1ncc([N+](=O)[O-])n1C [Dimetridazole] | 0.57 |
| CNc1ncnc2c1ncn2[C@@H]1O[C@H](CO)[C@@H](O)[C@H]1O [N6-methyladenosine] | -0.17 |
| C[C@@H](O)[C@H]1C(=O)N2C(C(=O)O)=C(SCCNC=N)C[C@H]12 [Imipenem] | 0.45 |
| COc1cccc(CCc2ccccc2OCC(CN(C)C)OC(=O)CCC(=O)O)c1 (stereo not drawn) [Sarpogrelate hydrochloride] | 0.36 |
| c1ccc2c(c1)CCCC2C1=NCCN1 (stereo not drawn) [Tetrahydrozoline hydrochloride] | -0.54 |
| N[C@H](Cc1ccccc1)C(=O)O [D-phenylalanine] | 1.03 |
| CCOC(=O)Nc1ccc2c(c1)N(C(=O)CCN1CCOCC1)c1ccccc1S2 [Moricizine hydrochloride] | -0.2 |

A few values from above.
Value of CC(C)OC(=O)C(C(=O)OC(C)C)=C1SC=CS1 [Malotilate] under eye size Z-score: 0.14
Value of C1N2CN3CN1CN(C2)C3 [Methenamine] under eye size Z-score: -0.9
